According to the supplement of paper PMC9226226:
“And” between values parts separate entries of the source, which are not always exact repeats. Equal entries are not always repeated. Some of the results follow. Several reference drugs read as weak here; read low effects with care.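 The cells are human mesenchymal stem cells that lack the Werner syndrome gene and age prematurely. Growth was tracked by automated live-cell imaging in three biological repeats, and the twenty drugs that most raised growth over vehicle were taken forward, with no fixed cutoff stated.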

System: Werner syndrome hMSCs (WRN-/-)
Assay: relative cell density (fold change vs vehicle control); higher = more proliferation (geroprotective)
Settings: concentration (umol/L): 1, 6 days

O=S(=O)(O)CCS
relative cell density (vehicle: DMSO): 0.994

CCOC(=O)OC(C)OC1=C(C(=O)Nc2ccccn2)N(C)S(=O)(=O)c2ccccc21 (centres undefined)
relative cell density (vehicle: DMSO): 1.19

O=C(Nc1c(Cl)cncc1Cl)c1ccc(OC(F)F)c(OCC2CC2)c1
relative cell density (vehicle: DMSO): 1.38

CCCS(=O)(=O)Nc1ccc(F)c(C(=O)c2c[nH]c3ncc(-c4ccc(Cl)cc4)cc23)c1F
relative cell density (vehicle: DMSO): 0.975

CCCCNC(=O)NS(=O)(=O)c1ccc(C)cc1
relative cell density (vehicle: DMSO): 1.25

O=C(O)c1cc(-c2ccc(F)cc2F)ccc1O
relative cell density (vehicle: DMSO): 1.11

CCCCCCCN(CC)CCCC(O)c1ccc(NS(C)(=O)=O)cc1 (centres undefined)
relative cell density (vehicle: DMSO): 1.08

CC1(C)S[C@@H]2[C@H](NC(=O)[C@H](NC(=O)N3CCN(S(C)(=O)=O)C3=O)c3ccccc3)C(=O)N2[C@H]1C(=O)O
relative cell density (vehicle: DMSO): 1

COc1cc(Nc2ncc(F)c(Nc3ccc4c(n3)N(COP(=O)(O)O)C(=O)C(C)(C)O4)n2)cc(OC)c1OC
relative cell density (vehicle: DMSO): 0.323
relative cell density (vehicle: Water): 0.147

COc1ccc(-c2cc(=O)c3c(O)cc(O[C@@H]4O[C@H](CO[C@@H]5O[C@@H](C)[C@H](O)[C@@H](O)[C@H]5O)[C@@H](O)[C@H](O)[C@H]4O)cc3o2)cc1O
relative cell density (vehicle: Water): 0.857

CN1CC2c3ccccc3Oc3ccc(Cl)cc3C2C1 (centres undefined)
relative cell density (vehicle: DMSO): 1.18

CC(C)(C)NC(=O)N[C@H](C(=O)N1C[C@H]2[C@@H]([C@H]1C(=O)NC(CC1CCC1)C(=O)C(N)=O)C2(C)C)C(C)(C)C (some centres undefined)
relative cell density (vehicle: DMSO): 1.17

c1ccc2[nH]c(-c3cscn3)nc2c1
relative cell density (vehicle: DMSO): 1.02

CCCCCCCCc1ccc(CCC(N)(CO)CO)cc1
relative cell density (vehicle: DMSO): 1.17

C[C@]12CC[C@@H]3c4ccc(O)cc4CC[C@H]3[C@@H]1CCC2=O
relative cell density (vehicle: DMSO): 1.07

COc1cc(C(=O)NC2CCCNC2)cc(OC)c1OC (centres undefined)
relative cell density (vehicle: DMSO): 1.07

CN1CCC(COc2cnc(-c3cccc(Cn4nc(-c5cccc(C#N)c5)ccc4=O)c3)nc2)CC1
relative cell density (vehicle: DMSO): 0.837

CC(C)c1cc(C(=O)N2Cc3ccc(CN4CCN(C)CC4)cc3C2)c(O)cc1O
relative cell density (vehicle: DMSO): 0.698

CCOC(=O)C1=C[C@]2(CC)CCCN3CCc4c(n1c1ccccc41)[C@@H]32
relative cell density (vehicle: Water): 0.951

O=NN(CCCl)C(=O)NC1CCCCC1
relative cell density (vehicle: DMSO): 0.996

COc1cnc(NS(=O)(=O)c2ccc(N)cc2)nc1
relative cell density (vehicle: DMSO): 1.07

O=C(O)CCC(=O)Nc1ccc(S(=O)(=O)Nc2nccs2)cc1
relative cell density (vehicle: DMSO): 1.2

O=C([O-])[C@H](O)[C@@H](O)[C@H](O)[C@H](O)CO.[Na+]
relative cell density (vehicle: Water): 1.14

Cc1cccc(CN2CCN(C(c3ccccc3)c3ccc(Cl)cc3)CC2)c1 (centres undefined)
relative cell density (vehicle: Water): 1.2

COc1cc(Cc2cnc(N)nc2N)cc(OC)c1OC
relative cell density (vehicle: DMSO): 0.977

COc1cc2c(cc1OC)C(=O)C(CC1CCN(Cc3ccccc3)CC1)C2 (centres undefined)
relative cell density (vehicle: Water): 0.837

OC[C@@H](O)[C@H](O)[C@@H](O)CO
relative cell density (vehicle: DMSO): 1.39

CC1(COc2ccc3c(c2)ncn3-c2ccc3cccc(N4CCC(N)CC4)c3n2)COC1
relative cell density (vehicle: DMSO): 0.93

CNCC[C@H](Oc1cccc2ccccc12)c1cccs1
relative cell density (vehicle: DMSO): 1.14

CC1CCC(C(C)C)C(O)C1 (centres undefined)
relative cell density (vehicle: DMSO): 1.14

Cc1c(C(N)=O)cc([N+](=O)[O-])cc1[N+](=O)[O-]
relative cell density (vehicle: DMSO): 0.932

C=C[C@H]1CN2CC[C@H]1C[C@@H]2[C@@H](O)c1ccnc2ccc(OC)cc12
relative cell density (vehicle: DMSO): 1.18

N=C(N)N
relative cell density (vehicle: DMSO): 0.999

N#Cc1ccc2[nH]cc(CCCCN3CCN(c4ccc5oc(C(N)=O)cc5c4)CC3)c2c1
relative cell density (vehicle: DMSO): 0.152

CN1C(C(=O)Nc2ccccn2)=C(O)c2sccc2S1(=O)=O
relative cell density (vehicle: DMSO): 1.17

Cc1ncc([N+](=O)[O-])n1CC(O)CCl (centres undefined)
relative cell density (vehicle: DMSO): 1.13

Cc1cccc(C)c1NC(=O)C1CCCCN1C (centres undefined)
relative cell density (vehicle: DMSO): 0.997

CN(C)c1ccc2nc3ccc(=[N+](C)C)cc-3sc2c1
relative cell density (vehicle: DMSO): 1.23

FC(F)(F)c1ccc(CNc2ccc(Cc3c[nH]c4ncc(Cl)cc34)cn2)cn1
relative cell density (vehicle: DMSO): 0.87

CN(C)CCC=C1c2ccccc2CCc2ccccc21
relative cell density (vehicle: DMSO): 1.3

Cc1ccnc2c1NC(=O)c1cccnc1N2C1CC1
relative cell density (vehicle: DMSO): 1.1

C#C[C@]1(O)CC[C@H]2[C@@H]3CCc4cc(OC5CCCC5)ccc4[C@H]3CC[C@@]21C
relative cell density (vehicle: DMSO): 1.03

Cc1[nH]c(=O)c(C#N)cc1-c1ccncc1
relative cell density (vehicle: DMSO): 0.991

Cn1c(=O)c2[nH]cnc2n(C)c1=O
relative cell density (vehicle: DMSO): 1.11

CS(=O)(=O)c1ccc(C2=C(c3ccccc3)C(=O)OC2)cc1
relative cell density (vehicle: DMSO): 1.62

NC(=O)c1ncn([C@@H]2O[C@H](CO)[C@@H](O)[C@H]2O)n1
relative cell density (vehicle: DMSO): 1.12

CCOC(=O)[C@H](CCc1ccccc1)N[C@@H](C)C(=O)N1[C@H](C(=O)O)C[C@@H]2CCC[C@@H]21
relative cell density (vehicle: DMSO): 1.01

NS(=O)(=O)c1cc2c(cc1Cl)N=CNS2(=O)=O
relative cell density (vehicle: DMSO): 1.17

CN[C@H](CC(C)C)C(=O)N[C@H]1C(=O)N[C@@H](CC(N)=O)C(=O)N[C@H]2C(=O)N[C@H]3C(=O)N[C@H](C(=O)N[C@H](C(=O)O)c4cc(O)cc(O)c4-c4cc3ccc4O)[C@H](O)c3ccc(c(Cl)c3)Oc3cc2cc(c3O[C@@H]2O[C@H](CO)[C@@H](O)[C@H](O)[C@H]2O[C@H]2C[C@](C)(N)[C@H](O)[C@H](C)O2)Oc2ccc(cc2Cl)[C@H]1O
relative cell density (vehicle: Water): 0.973

COc1ccc(-c2nc3cc(C4=NNC(=O)CC4C)ccc3[nH]2)cc1 (centres undefined)
relative cell density (vehicle: DMSO): 1.09

Cc1cc(C2CCCCC2)n(O)c(=O)c1
relative cell density (vehicle: DMSO): 0.429 and 0.307

CC1=C(C(=O)OC(C)C)C(c2cccc([N+](=O)[O-])c2)C(C(=O)OC2CN(C(c3ccccc3)c3ccccc3)C2)=C(N)N1 (centres undefined)
relative cell density (vehicle: DMSO): 1.1

COc1cc(C(=O)NS(=O)(=O)c2ccccc2C)ccc1Cc1cn(C)c2ccc(NC(=O)OC3CCCC3)cc12
relative cell density (vehicle: DMSO): 1.04

CCOc1cc([C@@H](CS(C)(=O)=O)N2C(=O)c3cccc(NC(C)=O)c3C2=O)ccc1OC
relative cell density (vehicle: DMSO): 0.797

O=C(O)c1cc(=O)c2ccccc2o1
relative cell density (vehicle: DMSO): 1.17

N=C(N)NC(=O)c1nc(Cl)c(N)nc1N
relative cell density (vehicle: DMSO): 0.942
relative cell density (vehicle: Water): 0.933

CN(C)C(=O)COC(=O)Cc1ccc(OC(=O)c2ccc(NC(=N)N)cc2)cc1
relative cell density (vehicle: DMSO): 0.83

Nc1ccccc1NC(=O)c1ccc(CNC(=O)OCc2cccnc2)cc1
relative cell density (vehicle: DMSO): 0.767

NC(=O)Cc1cccc(C(=O)c2ccccc2)c1N
relative cell density (vehicle: DMSO): 1.03

CCCCC1=NC2(CCCC2)C(=O)N1Cc1ccc(-c2ccccc2-c2nnn[nH]2)cc1
relative cell density (vehicle: Water): 0.898

N[C@@H]1CCCCN(c2c(F)cc3c(=O)c(C(=O)O)cn(C4CC4)c3c2Cl)C1
relative cell density (vehicle: Water): 0.954

CC[C@H]1OC(=O)[C@H](C)[C@@H](O[C@H]2C[C@@](C)(OC)[C@@H](O)[C@H](C)O2)[C@H](C)[C@@H](O[C@@H]2O[C@H](C)C[C@H](N(C)C)[C@H]2O)[C@](C)(OC)C[C@@H](C)C(=O)[C@H](C)[C@@H](O)[C@]1(C)O
relative cell density (vehicle: DMSO): 1.05
